The list shows a part of the results. Potency and affinity values are given separately.
Test system: Pseudomonas aeruginosa
Conditions: Concentration 32 ug.mL-1; ASSAY_TEST Inhibition of Bacterial Growth; detection method Absorption (OD600); MEDIA CAMHB; plate type 384well; NBS; CORNING #3640; time 18 hr

SMILES	Inhibition
CC(C)(CO)[C@H](O)C(=O)NCCCc1cn(C[C@H]2O[C@@H](n3ccc(N)nc3=O)[C@H](O)[C@@H]2O)nn1	41.93%
CC(C)(C)C(O)C(=O)NCCC(=O)NCCc1ccccc1 (stereo not drawn)	40.95%
C#CCNC(=O)[C@H](O)C(C)(C)CO	33.47%
CC(CC(=O)NCCc1ccccc1)NC(=O)[C@H](O)C(C)(C)CO (stereo partly drawn)	72.5%
CC(C)(CO)[C@H](O)C(=O)NCCC(=O)NCc1cn(C[C@H]2O[C@@H](n3ccc(N)nc3=O)[C@H](O)[C@@H]2O)nn1	20.42%
CCCCCCCNC(=S)CCNC(=O)[C@H](O)C(C)(C)CO	22.82%
CCCCCCCNC(=O)CCNC(=O)C(O)C(C)(C)C (stereo not drawn)	49.91%
CC(C)(CO)[C@H](O)C(=O)NCc1cn(C[C@H]2O[C@@H](n3ccc(N)nc3=O)[C@H](O)[C@@H]2O)nn1	37.59%
CC(C)(CN)C(O)C(=O)NCCC(=O)NCCc1ccccc1 (stereo not drawn)	51.6%
CC(C)(CO)[C@H](O)C(=O)NCCc1cn(C[C@H]2O[C@@H](n3ccc(N)nc3=O)[C@H](O)[C@@H]2O)nn1	21.65%
CC(C)(CO)[C@@H](O)C(=O)NCCC(=O)NNCc1ccccc1	44.24%
CC(C)(CO)C(O)C(=O)NCCCOP(=O)(O)OCC1OC(n2ccc(N)nc2=O)C(O)C1O (stereo not drawn)	20.74%
CC(C)(CO)[C@@H](O)C(=O)NCCC(=S)NCCc1ccccc1	38.53%
CC(C)(CO)[C@H](O)C(=O)NCCC(=O)OCc1cn(C[C@H]2O[C@@H](n3ccc(N)nc3=O)[C@H](O)[C@@H]2O)nn1	28.99%
CC(C)(CO)[C@@H](O)C(=O)N/C=C/C(=O)NCCc1ccccc1	39.92%
CCCCCCNNC(=O)CCNC(=O)[C@H](O)C(C)(C)CO	23.59%
CCCCCCCNS(=O)(=O)CCNC(=O)[C@H](O)C(C)(C)CO	28.14%
CC(C)(COP(=O)(O)O)[C@@H](O)C(=O)NCCC(=O)NCCc1ccccc1	35.19%

Quoted at random: two compounds from above, in no set order.
SMILES	Inhibition
CC(C)(CO)[C@@H](O)C(=O)NCCC(=S)NCCc1ccccc1	38.53%
CC(C)(CO)C(O)C(=O)NCCCOP(=O)(O)OCC1OC(n2ccc(N)nc2=O)C(O)C1O (stereo not drawn)	20.74%
